For assay [1], the target named is T1, GST-Rb (379-928) (human) (UniProt P06400).
T1 sequence: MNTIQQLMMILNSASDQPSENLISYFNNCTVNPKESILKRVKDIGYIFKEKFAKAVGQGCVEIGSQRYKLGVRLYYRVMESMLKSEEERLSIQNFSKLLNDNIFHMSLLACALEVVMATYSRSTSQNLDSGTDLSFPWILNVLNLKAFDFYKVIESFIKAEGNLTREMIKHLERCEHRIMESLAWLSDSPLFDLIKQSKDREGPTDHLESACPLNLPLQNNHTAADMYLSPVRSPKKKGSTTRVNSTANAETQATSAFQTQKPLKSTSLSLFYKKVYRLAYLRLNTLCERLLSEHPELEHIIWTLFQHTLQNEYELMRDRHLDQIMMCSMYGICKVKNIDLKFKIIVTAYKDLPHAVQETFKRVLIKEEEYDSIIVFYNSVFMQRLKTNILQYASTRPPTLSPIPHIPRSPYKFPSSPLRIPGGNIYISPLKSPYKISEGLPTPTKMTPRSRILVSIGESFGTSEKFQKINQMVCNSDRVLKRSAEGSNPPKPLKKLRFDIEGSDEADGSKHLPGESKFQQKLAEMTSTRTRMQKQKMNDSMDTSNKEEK
In words: pull-down; competitive: GST-Rb (379-928) on beads with a fixed amount of in vitro translated Orc1 and increasing amounts of in vitro translated E2F1 (luciferase as control); only the target purified.

Amino acid sequences for entries named in this document (tags omitted).
UniProt Q01094: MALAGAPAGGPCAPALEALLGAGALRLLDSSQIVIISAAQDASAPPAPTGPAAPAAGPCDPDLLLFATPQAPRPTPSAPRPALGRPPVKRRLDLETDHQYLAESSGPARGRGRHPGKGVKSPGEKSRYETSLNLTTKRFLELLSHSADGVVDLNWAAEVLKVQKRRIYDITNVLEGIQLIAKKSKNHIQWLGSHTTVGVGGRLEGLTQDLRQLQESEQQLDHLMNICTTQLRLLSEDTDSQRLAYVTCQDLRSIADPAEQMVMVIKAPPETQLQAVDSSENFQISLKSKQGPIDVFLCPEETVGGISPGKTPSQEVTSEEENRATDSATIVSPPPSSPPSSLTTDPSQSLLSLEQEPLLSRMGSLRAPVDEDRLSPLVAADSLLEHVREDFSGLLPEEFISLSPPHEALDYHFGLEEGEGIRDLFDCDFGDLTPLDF

Assay [2] deals with T2, GST-Rb AE Cys706Phe (human) (UniProt P06400).
T2 sequence: T1 sequence with C328F
In words: pull-down; 1 ug GST fusion protein on glutathione-agarose beads, pretreated with DNase I and RNase A, incubated with in vitro translated [35S]-protein in 0.1 mg/ml ethidium bromide; SDS-PAGE, phosphoimaging; only the target purified.

Assay [3] concerns the target T3, GST fused to the N-terminus (aa. 1-400) of Rb (human) (UniProt P06400).
T3 sequence: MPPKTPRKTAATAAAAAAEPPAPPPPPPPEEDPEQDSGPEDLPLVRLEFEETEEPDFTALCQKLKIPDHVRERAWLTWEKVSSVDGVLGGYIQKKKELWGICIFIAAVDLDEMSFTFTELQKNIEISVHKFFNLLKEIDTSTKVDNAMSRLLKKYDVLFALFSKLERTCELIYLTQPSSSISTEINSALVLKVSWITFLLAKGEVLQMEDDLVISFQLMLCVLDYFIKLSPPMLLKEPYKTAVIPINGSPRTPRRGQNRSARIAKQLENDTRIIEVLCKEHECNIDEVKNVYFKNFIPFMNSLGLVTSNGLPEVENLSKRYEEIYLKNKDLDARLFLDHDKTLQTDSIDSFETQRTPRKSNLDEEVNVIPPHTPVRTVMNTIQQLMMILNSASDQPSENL
The description is as above.

For assay [4], the target named is T1, GST-Rb (379-928) (human). The description is as above.
In a further assay the target is GST-E2F1 (human) (UniProt Q01094). Described as above.
Assay [5] has as its target E2F1 fused to EGFP or BFP (FRET) (human) (UniProt Q01094). In words: FRET or BRET; HeLa cells transiently transfected with EGFP and BFP fusion pairs; ratio of EGFP emission at 520 nm after excitation at 350 nm to that after 480 nm, at least 10 cells a pair. In general terms: Bioluminescence resonance energy transfer reports proximity on the nanometre scale.
The target of assay [6] is T4, Rb fused to BFP or EGFP (FRET) (human) (UniProt P06400).
T4 sequence: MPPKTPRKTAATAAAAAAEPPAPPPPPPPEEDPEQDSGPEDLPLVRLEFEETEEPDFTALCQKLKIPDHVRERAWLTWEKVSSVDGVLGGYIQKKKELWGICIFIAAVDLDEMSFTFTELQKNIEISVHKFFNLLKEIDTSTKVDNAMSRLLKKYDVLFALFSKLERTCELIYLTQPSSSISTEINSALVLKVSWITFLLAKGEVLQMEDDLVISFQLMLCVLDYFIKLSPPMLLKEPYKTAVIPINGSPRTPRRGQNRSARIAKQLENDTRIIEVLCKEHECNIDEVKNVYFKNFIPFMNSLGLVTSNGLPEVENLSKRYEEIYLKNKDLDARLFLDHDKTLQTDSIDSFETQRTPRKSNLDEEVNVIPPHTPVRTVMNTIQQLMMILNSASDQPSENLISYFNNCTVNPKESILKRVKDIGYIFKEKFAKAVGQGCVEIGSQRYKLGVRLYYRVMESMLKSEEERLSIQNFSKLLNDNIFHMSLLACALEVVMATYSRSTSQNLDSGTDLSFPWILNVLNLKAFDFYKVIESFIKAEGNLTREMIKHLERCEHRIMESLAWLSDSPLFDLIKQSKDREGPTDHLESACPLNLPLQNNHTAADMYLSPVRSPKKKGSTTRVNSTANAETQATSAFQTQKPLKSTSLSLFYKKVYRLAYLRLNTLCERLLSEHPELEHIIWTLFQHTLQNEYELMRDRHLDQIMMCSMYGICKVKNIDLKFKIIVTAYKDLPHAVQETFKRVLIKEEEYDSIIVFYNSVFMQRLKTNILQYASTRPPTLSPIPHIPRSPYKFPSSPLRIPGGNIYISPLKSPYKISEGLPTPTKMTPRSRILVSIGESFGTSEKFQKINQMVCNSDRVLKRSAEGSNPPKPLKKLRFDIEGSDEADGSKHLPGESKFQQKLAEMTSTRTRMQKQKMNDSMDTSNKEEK
The assay is described as above.

The target of assay [7] is T5, endogenous Rb (HeLa) (human (endogenous in HeLa)) (UniProt P06400).
T5 sequence: T4 sequence
In words: co-IP; endogenous proteins, lysates of asynchronous HeLa cells in HNNG buffer (15 mM Hepes pH 7.5, 250 mM NaCl, 1% NP-40, 5% glycerol), antibody overnight at 4 C, protein A/G beads, DNase I treated; western blot. On the technique in general: Immunoblotting shows a protein as a band on a membrane.

The target of assay [8] is endogenous E2F1 (HeLa) (human (endogenous in HeLa)) (UniProt Q01094). The assay is described as above.

Positions count from the first letter of the chain named. These are yes or no findings as the source states them, for the method shown. In cells and extracts the contact can be indirect. Some results given as binding are weak or reduced against the parent protein; the word gives no strength. For part of these data: Tags and fused reporters may be left off the sequences shown.

B1: in vitro translated [35S]-labelled human Orc1 (protein, UniProt Q13415 1-861)
chain: MAHYPTRLKTRKTYSWVGRPLLDRKLHYQTYREMCVKTEGCSTEIHIQIGQFVLIEGDDDENPYVAKLLELFEDDSDPPPKKRARVQWFVRFCEVPACKRHLLGRKPGAQEIFWYDYPACDSNINAETIIGLVRVIPLAPKDVVPTNLKNEKTLFVKLSWNEKKFRPLSSELFAELNKPQESAAKCQKPVRAKSKSAESPSWTPAEHVAKRIESRHSASKSRQTPTHPLTPRARKRLELGNLGNPQMSQQTSCASLDSPGRIKRKVAFSEITSPSKRSQPDKLQTLSPALKAPEKTRETGLSYTEDDKKASPEHRIILRTRIAASKTIDIREERTLTPISGGQRSSVVPSVILKPENIKKRDAKEAKAQNEATSTPHRIRRKSSVLTMNRIRQQLRFLGNSKSDQEEKEILPAAEISDSSSDEEEASTPPLPRRAPRTVSRNLRSSLKSSLHTLTKVPKKSLKPRTPRCAAPQIRSRSLAAQEPASVLEEARLRLHVSAVPESLPCREQEFQDIYNFVESKLLDHTGGCMYISGVPGTGKTATVHEVIRCLQQAAQANDVPPFQYIEVNGMKLTEPHQVYVQILQKLTGQKATANHAAELLAKQFCTRGSPQETTVLLVDELDLLWTHKQDIMYNLFDWPTHKEARLVVLAIANTMDLPERIMMNRVSSRLGLTRMCFQPYTYSQLQQILRSRLKHLKAFEDDAIQLVARKVAALSGDARRCLDICRRATEICEFSQQKPDSPGLVTIAHSMEAVDEMFSSSYITAIKNSSVLEQSFLRAILAEFRRSGLEEATFQQIYSQHVALCRMEGLPYPTMSETMAVCSHLGSCRLLLVEPSRNDLLLRVRLNVSQDDVLYALKDE
modifications: [35S]-labelled
For B1, the binding result was “binds” with GST-Rb (379-928) (human) [1]; “binds” in [2]; “no binding” in assay [3]; “binds” in the assay with GST-Rb (379-928) (human) [4]; “no binding” with GST-E2F1 (human).

B2: Orc1 fused to EGFP or BFP (FRET) (protein, UniProt Q13415 1-861)
chain: B1 chain
For B2, the binding entry in [5] is “no binding”; in [6], “binds”.

B3: endogenous Orc1 (HeLa) (protein, UniProt Q13415 1-861)
chain: B1 chain
With B3, the binding entry in assay [7] is given as “binds”; in assay [8], “no binding”.

The values are drawn from article PMC2976706.
